Data from patent US20210179940A1, “WIDE TEMPERATURE RANGE AND HIGH PHOTOCHEMICAL STABILITY SMECTIC LIQUID CRYSTAL COMPOSITIONS WITH A MONOLAYER SMECTIC A PHASE (SMA1), METHOD OF OBTAINING THEREOF AND DEVICES UTILIZING THEREOF” (WOJSKOWA AKADEMIA TECHNICZNA, priority 2017, published 2021).
“Also recorded” adds a separate entry of the source.

How the values were obtained:
[1] = dynamic scattering effect, threshold and saturation voltages of doped composition 18; conditions: prepared in fluorobenzene, RT; for Vs(sc) saturation voltage, scattering state / Vth(sc) threshold voltage, scattering state: f = 50 Hz
[2] = dynamic scattering effect, threshold and saturation voltages of doped composition 21; design: key to Quality: G: parameters of the dynamic state and the clear state - good; M: parameters of the dynamic state and the clear state - moderate; W: parameters of the dynamic state and the clear state - weak; conditions: composition 21, dopant 6.58 · 10^−3 mol/kg, RT
[3] = composition 18, dopant 6.58 · 10^−3 mol/kg, f = 0.8 kHz
[4] = composition 18, dopant 6.58 · 10^−3 mol/kg
[5] = composition 18, dopant 8.78 · 10^−3 mol/kg
[6] = composition 18, dopant 8.78 · 10^−3 mol/kg, f = 0.8 kHz
[7] = composition 18, dopant 8.78 · 10^−3 mol/kg, f = 1 kHz
[8] = composition 18, dopant 8.78 · 10^−3 mol/kg, f = 3 kHz
[9] = composition 18, dopant 8.78 · 10^−3 mol/kg, f = 5 kHz
[10] = composition 18, dopant 6.58 · 10^−3 mol/kg, f = 1 kHz
[11] = composition 18, dopant 6.58 · 10^−3 mol/kg, f = 3 kHz
[12] = composition 18, dopant 6.58 · 10^−3 mol/kg, f = 5 kHz
[13] = composition 18, dopant 2.19 · 10^−3 mol/kg, f = 0.8 kHz
[14] = composition 18, dopant 2.19 · 10^−3 mol/kg, f = 1 kHz
[15] = composition 18, dopant 2.19 · 10^−3 mol/kg, f = 3 kHz
[16] = composition 18, dopant 2.19 · 10^−3 mol/kg, f = 5 kHz
[17] = composition 18, dopant 2.19 · 10^−3 mol/kg

## complex of 18-crown-6 ether with potassium bromide [IIIb]
[1]; [3]
  Vs(c) saturation voltage, clear state: 100 V
  Vth(c) threshold voltage, clear state: 80 V
[1]; [4]
  Vs(sc) saturation voltage, scattering state: 270 V
  Vth(sc) threshold voltage, scattering state: 120 V

## CCCCCCCCc1ccc([O-])cc1.[K+].c1ccc2c(c1)OCCOCCOc1ccccc1OCCOCCO2 [IVh8, complex of dibenzo-18-crown-6 ether with potassium 4-octylphenolate]
[1]; [5]
  Vth(sc) threshold voltage, scattering state: 130 V

## 1-hexadecyl-1,8-diazabicyclo[5.4.0]undec-7-enium 4-dodecylbenzenesulphonate [II.16g12]
[2]
  Quality: G
[2]; f = 0.8 kHz
  Vs(c) saturation voltage, clear state: 70 V
  Vth(c) threshold voltage, clear state: 70 V
[2]; f = 1 kHz
  Vs(c) saturation voltage, clear state: 70 V
  Vth(c) threshold voltage, clear state: 70 V
[2]; f = 3 kHz
  Vs(c) saturation voltage, clear state: 70 V
  Vth(c) threshold voltage, clear state: 70 V
[2]; f = 5 kHz
  Vs(c) saturation voltage, clear state: 70 V
  Vth(c) threshold voltage, clear state: 70 V
[2]; f = 7 kHz
  Vs(c) saturation voltage, clear state: 80 V
  Vth(c) threshold voltage, clear state: 70 V
[2]; f = 50 Hz
  Vs(sc) saturation voltage, scattering state: 130 V
  Vth(sc) threshold voltage, scattering state: 120 V
[1]; [6]
  Vs(c) saturation voltage, clear state: 150 V
  Vth(c) threshold voltage, clear state: 140 V
[1]; [7]
  Vs(c) saturation voltage, clear state: 150 V
  Vth(c) threshold voltage, clear state: 140 V
[1]; [8]
  Vs(c) saturation voltage, clear state: 150 V
  Vth(c) threshold voltage, clear state: 140 V
[1]; [9]
  Vth(c) threshold voltage, clear state: 150 V
[1]; [5]
  Vs(sc) saturation voltage, scattering state: 190 V
  Vth(sc) threshold voltage, scattering state: 100 V

## CCCCCCCCCCCCCCCC[N+](C)(C)C.[Br-] [I.16b, hexadecyltrimethylammonium bromide, reference compound]
[1]; [5]
  dynamic scattering (observation): not observed up to voltage 400V; also recorded: no dynamic scattering

## CCCCCCCCCCCCc1ccc(S(=O)(=O)[O-])cc1.[K+].c1ccc2c(c1)OCCOCCOc1ccccc1OCCOCCO2 [IVg12, Complex of dibenzo-18-crown-6 ether with potassium 4-dodecylbenzenesulphonate]
[1]; [6]
  Vs(c) saturation voltage, clear state: 100 V
  Vth(c) threshold voltage, clear state: 90 V
[1]; [7]
  Vs(c) saturation voltage, clear state: 90 V
  Vth(c) threshold voltage, clear state: 90 V
[1]; [8]
  Vs(c) saturation voltage, clear state: 100 V
  Vth(c) threshold voltage, clear state: 80 V
[1]; [9]
  Vs(c) saturation voltage, clear state: 90 V
  Vth(c) threshold voltage, clear state: 90 V
[1]; [5]
  Vs(sc) saturation voltage, scattering state: 320 V
  Vth(sc) threshold voltage, scattering state: 190 V

## complex of dibenzo-18-crown-6 ether with potassium bromide [IVb]
[1]; [3]
  Vs(c) saturation voltage, clear state: 150 V
  Vth(c) threshold voltage, clear state: 150 V
[1]; [4]
  Vs(sc) saturation voltage, scattering state: 330 V
  Vth(sc) threshold voltage, scattering state: 120 V

## CCCCCCCCCCCCCCCC[N+]1=C2CCCCCN2CCC1 [II.16c, 1-Hexadecyl-1,8-diazabicyclo[5.4.0]undec-7-enium chlorate (VII)]
[1]; [7]
  Vth(c) threshold voltage, clear state: 120 V
[1]; [5]
  Vs(sc) saturation voltage, scattering state: 250 V
  Vth(sc) threshold voltage, scattering state: 190 V

## tetramethylammonium dodecylbenzenesulphonate [I.1g12, reference compound]
[1]; [5]
  dynamic scattering (observation): not observed up to voltage 400V; also recorded: no dynamic scattering

## C1COCCOCCOCCOCCOCCO1.[K+].[O-]c1ccc(F)c(F)c1 [IIIk, complex of 18-crown-6 ether with potassium 3,4-difluorophenolate]
[1]; [3]
  Vs(c) saturation voltage, clear state: 130 V
  Vth(c) threshold voltage, clear state: 100 V
[1]; [10]
  Vs(c) saturation voltage, clear state: 120 V
  Vth(c) threshold voltage, clear state: 110 V
[1]; [11]
  Vs(c) saturation voltage, clear state: 110 V
  Vth(c) threshold voltage, clear state: 100 V
[1]; [12]
  Vs(c) saturation voltage, clear state: 120 V
  Vth(c) threshold voltage, clear state: 110 V
[1]; [4]
  Vs(sc) saturation voltage, scattering state: 200 V
  Vth(sc) threshold voltage, scattering state: 120 V

## CC[N+]12CCCCCC1=NCCC2.[Br-] (centres unmarked) [II.2b, 1-ethyl-1,8-diazabicyclo[5.4.0] undec-7-enium bromide]
[1]; [3]
  Vs(c) saturation voltage, clear state: 120 V
  Vth(c) threshold voltage, clear state: 120 V
[1]; [4]
  Vth(sc) threshold voltage, scattering state: 300 V

## N#Cc1c(F)cc([O-])cc1F.[K+].c1ccc2c(c1)OCCOCCOc1ccccc1OCCOCCO2 [IVn, complex of dibenzo-18-crown-6 ether with potassium 3,5-difluoro-4-cyanophenolate]
[1]; [13]
  Vs(c) saturation voltage, clear state: 140 V
  Vth(c) threshold voltage, clear state: 100 V
[1]; [14]
  Vs(c) saturation voltage, clear state: 140 V
  Vth(c) threshold voltage, clear state: 100 V
[1]; [15]
  Vs(c) saturation voltage, clear state: 120 V
  Vth(c) threshold voltage, clear state: 90 V
[1]; [16]
  Vs(c) saturation voltage, clear state: 110 V
  Vth(c) threshold voltage, clear state: 90 V
[1]; [17]
  Vs(sc) saturation voltage, scattering state: 220 V
  Vth(sc) threshold voltage, scattering state: 200 V
[1]; [6]
  Vs(c) saturation voltage, clear state: 140 V
  Vth(c) threshold voltage, clear state: 100 V
[1]; [7]
  Vth(c) threshold voltage, clear state: 130 V
[1]; [8]
  Vth(c) threshold voltage, clear state: 130 V
[1]; [9]
  Vth(c) threshold voltage, clear state: 130 V
[1]; [5]
  Vs(sc) saturation voltage, scattering state: 240 V
  Vth(sc) threshold voltage, scattering state: 90 V

## 1-hexadecyl-1,8-diazabicyclo[5.4.0]undec-7-enium 3,4-difluorophenolate [II.16k]
[1]; [7]
  Vs(c) saturation voltage, clear state: 120 V
  Vth(c) threshold voltage, clear state: 90 V
[1]; [8]
  Vs(c) saturation voltage, clear state: 120 V
  Vth(c) threshold voltage, clear state: 90 V
[1]; [9]
  Vs(c) saturation voltage, clear state: 130 V
  Vth(c) threshold voltage, clear state: 90 V
[1]; [5]
  Vs(sc) saturation voltage, scattering state: 220 V
  Vth(sc) threshold voltage, scattering state: 120 V

## complex of dibenzo-18-crown-6 ether with potassium chlorate (VII) [IVc]
[1]; [6]
  Vth(c) threshold voltage, clear state: 130 V
[1]; [7]
  Vth(c) threshold voltage, clear state: 130 V
[1]; [5]
  Vth(sc) threshold voltage, scattering state: 100 V

## complex of 18-crown-6 ether with sodium dodecyl-1-sulphonate [V.e12]
[1]; [3]
  Vth(c) threshold voltage, clear state: 70 V
[1]; [4]
  Vs(sc) saturation voltage, scattering state: 280 V
  Vth(sc) threshold voltage, scattering state: 260 V

## [K+].[O-]c1ccc(F)c(F)c1.c1ccc2c(c1)OCCOCCOc1ccccc1OCCOCCO2 [IVk, complex of dibenzo-18-crown-6 ether with potassium 3,4-difluorophenolate]
[1]; [6]
  Vs(c) saturation voltage, clear state: 150 V
  Vth(c) threshold voltage, clear state: 100 V
[1]; [7]
  Vs(c) saturation voltage, clear state: 150 V
  Vth(c) threshold voltage, clear state: 100 V
[1]; [8]
  Vs(c) saturation voltage, clear state: 140 V
  Vth(c) threshold voltage, clear state: 100 V
[1]; [9]
  Vth(c) threshold voltage, clear state: 140 V
[1]; [5]
  Vs(sc) saturation voltage, scattering state: 230 V
  Vth(sc) threshold voltage, scattering state: 110 V

## 1-hexadecyl-1,8-diazabicyclo[5,4,0]undec-7-enium 3,5-difluoro-4-cyanophenolate [II.16n]
[1]; [5]
  Vs(sc) saturation voltage, scattering state: 270 V
  Vth(sc) threshold voltage, scattering state: 220 V
